In PubChem BioAssay AID308 (DTP/NCI, 2004) one finds survivor count and T/C data, which are given here for twelve compounds.

This experiment deals with BDF1 mice, L1210 6-MP/6-TG resistant leukemia ip, survival T/C. Briefly: NCI In Vivo Anticancer Drug Screen. Data for tumor model L1210 Leukemia resistant to 6-MP and 6-Thioguanine; NSC 755, NSC 752 (intraperitoneal) in B6D2F1 (BDF1) mice. Conditions: T/C endpoint: mean survival time, higher T/C = longer survival. The protocol: The antitumor activity of compounds was measured in mice bearing transplantable tumors. Survival or tumor size were measured and the results are expressed as the measurement made in the treated group (T) divided by the measurement made in the vehicle treated control group (C). The tumor model used in this assay is L1210 Leukemia resistant to 6-MP and 6-Thioguanine; NSC 755, NSC 752 (intraperitoneal) in B6D2F1 (BDF1) mice

The mark [1] stands for this setting: dose: 25.0 mg/kg/injection, schedule: Q01DX Z (ip), vehicle: carboxymethylcellulose (CMC).
Setting [2] is: dose: 50.0 mg/kg/injection, schedule: Q01DX Z (ip), vehicle: carboxymethylcellulose (CMC).
Setting [3] is: dose: 75.0 mg/kg/injection, schedule: Q01DX Z (ip), vehicle: carboxymethylcellulose (CMC).
Where [4] appears, read: dose: 250.0 mg/kg/injection, schedule: Q01DX Z (ip), vehicle: saline.

The list does not hold the whole screen: it is rich in T/C values a quarter to a half above the control, in often repeated tests (any T/C) and in doses without a T/C. Other doses and runs of a compound stand elsewhere. T/C gives the treated animals as a percentage of the vehicle group. Some entries give survivors of the animals treated and no T/C: the source files T/C as zero there, which appears to mark a toxic dose or a test without result, not a measured value. Some doses without a T/C left all or most animals alive at the check, yet need not have been tolerated: the source hardly ever lists a survival T/C far under the control, and the zero likely stands for such cases as well. Counts of survivors are from the toxicity check (mostly the fifth day) where no day follows; animals may have died later. Schedule codes are those of the source, read here as Q, the interval in days (D) or hours (H), X, the number of doses. Some schedule codes hold Z or #, which are not explained here. For survival time, this PubChem deposit counts one and a half times the control or more as active, and values a quarter to a half above the control carry no call in these data; other NCI protocols may use other cut-offs. Some entries hold several experiments; their values stand side by side, smallest first. Some T/C values are followed by the survivors on the day toxicity was checked, most often the fifth; without a count, all were alive then.

For the compound `CCOC(=O)Sc1ncnc2nc[nH]c12`, the survivor count (dose: 112.0 mg/kg/injection, schedule: Q01DX Z (ip), vehicle: saline) is 10 of 10.

Turning to `Oc1cc(CN(CCCl)CCCl)c(O)cc1CN(CCCl)CCCl`, the survivor count is 3 of 6 (dose: 0.06 mg/kg/injection, schedule: Q01DX Z (ip), vehicle: saline); 2 of 6 (dose: 0.25 mg/kg/injection, schedule: Q01DX Z (ip), vehicle: saline); 6 of 6 (dose: 8.0 mg/kg/injection, schedule: Q01DX Z (ip), vehicle: carboxymethylcellulose (CMC)); 1 of 6 (dose: 12.5 mg/kg/injection, schedule: Q01DX Z (ip), vehicle: carboxymethylcellulose (CMC)); 0 of 6 under setting [1]; 0 of 6 under setting [2]. In addition, the survivor count under setting [3] is 0 of 6. Besides, the T/C reads like this: (dose: 0.12 mg/kg/injection, schedule: Q01DX Z (ip), vehicle: saline) 126 % of control [4 of 6 alive]; (dose: 1.0 mg/kg/injection, schedule: Q01DX Z (ip), vehicle: carboxymethylcellulose (CMC)) 136 and 146 % of control.

Consider `CC1CCOS(=O)O1` (centres undefined), for which the survivor count is, setting by setting: (dose: 150.0 mg/kg/injection, schedule: Q01DX Z (ip), vehicle: saline) 6 of 6; (dose: 200.0 mg/kg/injection, schedule: Q01DX Z (ip), vehicle: saline) 1 of 6; (dose: 300.0 mg/kg/injection, schedule: Q01DX Z (ip), vehicle: saline) 0 of 6.

Consider `CC(C)n1cnc2c(=S)nc[nH]c21`, for which the survivor count reads like this: (dose: 140.0 mg/kg/injection, schedule: Q01DX015 (ip), vehicle: carboxymethylcellulose (CMC)) 6 of 6; (dose: 210.0 mg/kg/injection, schedule: Q01DX015 (ip), vehicle: carboxymethylcellulose (CMC)) 5 of 6.

For the compound `O=C1C(NC(=O)C2CCCCC2)=C(N2CC2)C(=O)C(NC(=O)C2CCCCC2)=C1N1CC1`, the T/C is, setting by setting: (dose: 375.0 mg/kg/injection, schedule: Q01DX Z (ip), vehicle: carboxymethylcellulose (CMC)) 128 % of control; (dose: 500.0 mg/kg/injection, schedule: Q01DX Z (ip), vehicle: carboxymethylcellulose (CMC)) 135 % of control.

On to `S=P(N1CCOCC1)(N1CC1)N1CC1`, for which the T/C under setting [1] was 128 % of control. The survivor count under setting [1] is on record as 6 of 6; the survivor count under setting [2] was 5 of 6; the survivor count under setting [3] was 5 of 6; the survivor count (dose: 100.0 mg/kg/injection, schedule: Q01DX Z (ip), vehicle: carboxymethylcellulose (CMC)) is recorded as 3 of 6.

Regarding `S=c1nc[nH]c2c1ncn2CN1CCCCC1`, the survivor count runs as follows: (dose: 25.0 mg/kg/injection, schedule: Q01DX009 (ip), vehicle: other) 6 of 6; (dose: 100.0 mg/kg/injection, schedule: Q01DX009 (ip), vehicle: other) 6 of 6; (dose: 200.0 mg/kg/injection, schedule: Q01DX009 (ip), vehicle: other) 6 of 6.

In the case of `[N-]=[N+]=CC(=O)NCC(=O)NN`, the T/C was 125 % of control [5 of 6 alive] (dose: 125.0 mg/kg/injection, schedule: Q01DX Z (ip), vehicle: saline); 138 % of control under setting [4]; 132 % of control (dose: 500.0 mg/kg/injection, schedule: Q01DX Z (ip), vehicle: saline).

Turning to `CCOC(=O)NP(=O)(N1CC1(C)C)N1CC1(C)C` (centres undefined), the T/C under setting [4] is 133 % of control [5 of 6 alive].

Turning to `CC(=O)N(C)C`, where the note is “dose: 62.5 mg/kg/injection, schedule: Q01DX Z (ip), vehicle: saline”, the T/C was 127 % of control.

Turning to `Nn1cnc2c(=S)nc[nH]c21`, the survivor count (dose: 120.0 mg/kg/injection, schedule: Q01DX015 (ip), vehicle: other) is 10 of 10 and the survivor count (dose: 200.0 mg/kg/injection, schedule: Q01DX015 (ip), vehicle: other) is on record as 10 of 10.

On to `CC(=O)CSc1ncnc2nc[nH]c12`, for which the survivor count runs as follows: (dose: 500.0 mg/kg/injection, schedule: Q01DX015 (ip), vehicle: carboxymethylcellulose (CMC)) 2 of 6; (dose: 1000.0 mg/kg/injection, schedule: Q01DX015 (ip), vehicle: carboxymethylcellulose (CMC)) 0 of 6.
